These are yes or no findings as the source states them, for the method shown. In cells and extracts the contact can be indirect. Some results given as binding are weak or reduced against the parent protein; the word gives no strength. For some assays here: Sequences can lack the tags named with a protein.
Key:
[1] = target: HA-Crm1 (chromosome region maintenance 1) (UniProt O14980); test: co-IP; HeLa cells transfected with Flag-USP16 and HA-Crm1, treated or not with TMG + glucose; immunoblotted with anti-Flag antibodies
[2] = target: T1, GST-OGT (UniProt O15294); test: pull-down; recombinant GST-OGT (or GST) incubated with lysates of HeLa cells transfected with Flag-USP16 or vector; only the target purified
T1 sequence: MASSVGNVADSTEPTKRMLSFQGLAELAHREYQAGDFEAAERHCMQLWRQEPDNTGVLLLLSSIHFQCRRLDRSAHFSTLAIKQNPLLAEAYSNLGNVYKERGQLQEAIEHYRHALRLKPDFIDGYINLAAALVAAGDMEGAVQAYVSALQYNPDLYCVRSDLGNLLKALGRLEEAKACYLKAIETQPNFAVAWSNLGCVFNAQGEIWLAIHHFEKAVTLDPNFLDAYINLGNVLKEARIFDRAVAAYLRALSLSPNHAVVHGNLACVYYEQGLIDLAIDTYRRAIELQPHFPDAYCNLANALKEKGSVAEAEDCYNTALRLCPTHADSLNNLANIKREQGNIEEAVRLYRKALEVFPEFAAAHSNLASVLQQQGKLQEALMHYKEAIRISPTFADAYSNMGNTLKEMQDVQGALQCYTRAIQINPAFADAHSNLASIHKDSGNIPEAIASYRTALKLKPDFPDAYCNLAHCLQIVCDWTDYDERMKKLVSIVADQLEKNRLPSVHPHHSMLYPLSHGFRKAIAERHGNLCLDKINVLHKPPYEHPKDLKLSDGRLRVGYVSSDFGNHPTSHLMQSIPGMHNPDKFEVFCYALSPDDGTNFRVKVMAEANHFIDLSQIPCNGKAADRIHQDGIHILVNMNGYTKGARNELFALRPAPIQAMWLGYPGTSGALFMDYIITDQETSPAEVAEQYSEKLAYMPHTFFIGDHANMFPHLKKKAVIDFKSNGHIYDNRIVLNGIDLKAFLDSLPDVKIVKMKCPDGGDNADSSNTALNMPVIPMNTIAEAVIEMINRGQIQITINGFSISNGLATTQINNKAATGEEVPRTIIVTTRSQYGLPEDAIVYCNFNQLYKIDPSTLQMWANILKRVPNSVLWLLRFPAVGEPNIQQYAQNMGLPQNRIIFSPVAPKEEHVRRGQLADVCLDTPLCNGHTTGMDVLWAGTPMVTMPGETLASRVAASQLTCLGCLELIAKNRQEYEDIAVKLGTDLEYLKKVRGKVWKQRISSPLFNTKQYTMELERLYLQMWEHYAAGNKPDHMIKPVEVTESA

Protein sequences, listed by entry. Tags and fused reporters are not part of them.
UniProt O14980: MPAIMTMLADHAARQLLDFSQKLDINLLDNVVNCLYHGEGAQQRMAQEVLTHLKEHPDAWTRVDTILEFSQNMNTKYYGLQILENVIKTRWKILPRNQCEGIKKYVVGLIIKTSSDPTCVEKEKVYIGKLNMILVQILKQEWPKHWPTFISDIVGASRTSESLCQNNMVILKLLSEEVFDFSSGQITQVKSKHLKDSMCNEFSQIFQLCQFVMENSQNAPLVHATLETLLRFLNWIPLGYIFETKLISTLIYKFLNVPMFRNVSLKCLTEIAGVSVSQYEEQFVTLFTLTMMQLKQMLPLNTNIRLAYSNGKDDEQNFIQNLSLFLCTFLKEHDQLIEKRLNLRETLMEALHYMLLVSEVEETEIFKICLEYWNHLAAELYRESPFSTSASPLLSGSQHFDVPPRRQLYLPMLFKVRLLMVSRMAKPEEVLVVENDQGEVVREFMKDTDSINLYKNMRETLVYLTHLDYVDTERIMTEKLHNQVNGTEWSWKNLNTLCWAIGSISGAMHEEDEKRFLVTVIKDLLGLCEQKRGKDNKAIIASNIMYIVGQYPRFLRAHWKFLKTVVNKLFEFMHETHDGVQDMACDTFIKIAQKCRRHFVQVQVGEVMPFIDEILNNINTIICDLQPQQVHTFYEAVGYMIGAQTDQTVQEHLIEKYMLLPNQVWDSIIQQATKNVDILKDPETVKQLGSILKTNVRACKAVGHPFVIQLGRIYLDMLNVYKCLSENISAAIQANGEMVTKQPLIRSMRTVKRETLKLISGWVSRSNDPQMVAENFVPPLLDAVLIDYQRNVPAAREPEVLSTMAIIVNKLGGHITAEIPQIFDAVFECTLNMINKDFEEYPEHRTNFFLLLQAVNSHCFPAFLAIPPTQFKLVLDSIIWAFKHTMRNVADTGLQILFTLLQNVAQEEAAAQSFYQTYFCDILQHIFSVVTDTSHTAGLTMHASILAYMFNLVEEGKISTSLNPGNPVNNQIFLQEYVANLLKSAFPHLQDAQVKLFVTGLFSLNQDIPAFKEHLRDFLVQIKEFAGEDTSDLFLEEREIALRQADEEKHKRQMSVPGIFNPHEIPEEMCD
UniProt Q9Y5T5: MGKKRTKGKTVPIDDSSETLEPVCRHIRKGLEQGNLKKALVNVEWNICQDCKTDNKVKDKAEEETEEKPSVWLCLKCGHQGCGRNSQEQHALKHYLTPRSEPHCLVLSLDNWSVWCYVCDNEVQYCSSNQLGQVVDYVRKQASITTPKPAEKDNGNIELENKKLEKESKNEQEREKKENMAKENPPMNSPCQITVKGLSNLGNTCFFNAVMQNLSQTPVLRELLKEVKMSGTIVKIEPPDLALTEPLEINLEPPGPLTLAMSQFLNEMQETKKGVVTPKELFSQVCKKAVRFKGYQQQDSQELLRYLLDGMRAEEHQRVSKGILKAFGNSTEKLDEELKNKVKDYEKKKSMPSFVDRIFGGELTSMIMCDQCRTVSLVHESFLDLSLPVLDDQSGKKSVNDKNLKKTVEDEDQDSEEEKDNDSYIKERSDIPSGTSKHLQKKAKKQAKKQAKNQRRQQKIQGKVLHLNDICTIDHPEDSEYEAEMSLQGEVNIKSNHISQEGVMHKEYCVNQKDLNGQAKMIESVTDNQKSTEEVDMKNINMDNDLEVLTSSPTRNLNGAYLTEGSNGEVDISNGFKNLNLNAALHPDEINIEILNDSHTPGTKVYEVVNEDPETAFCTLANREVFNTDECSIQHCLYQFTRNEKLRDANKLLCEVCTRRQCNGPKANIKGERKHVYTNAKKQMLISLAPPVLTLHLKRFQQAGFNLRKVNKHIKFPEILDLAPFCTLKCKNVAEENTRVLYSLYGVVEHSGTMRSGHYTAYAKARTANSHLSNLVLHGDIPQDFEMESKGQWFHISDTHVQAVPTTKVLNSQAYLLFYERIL

In the case of “Flag-USP16 (ubiquitin-specific peptidase 16) (from UniProt Q9Y5T5 1-823) (enzyme)”, the binding [1] is reported as “binds” and the binding [2] is reported as “binds”.
